Article PMC5573678
Results are given in words; binding and its absence hold for the method and conditions named. Binding seen in cells or lysates may run through a third protein. Some entries that bind do so weakly or less than the wild type. Where a sequence is shown, tags or fusion partners need not be part of it.

T1: HA-tagged AIM2 (AIM2HA), transiently expressed in HEK293T cells (UniProt Q91VJ1)
T1 sequence: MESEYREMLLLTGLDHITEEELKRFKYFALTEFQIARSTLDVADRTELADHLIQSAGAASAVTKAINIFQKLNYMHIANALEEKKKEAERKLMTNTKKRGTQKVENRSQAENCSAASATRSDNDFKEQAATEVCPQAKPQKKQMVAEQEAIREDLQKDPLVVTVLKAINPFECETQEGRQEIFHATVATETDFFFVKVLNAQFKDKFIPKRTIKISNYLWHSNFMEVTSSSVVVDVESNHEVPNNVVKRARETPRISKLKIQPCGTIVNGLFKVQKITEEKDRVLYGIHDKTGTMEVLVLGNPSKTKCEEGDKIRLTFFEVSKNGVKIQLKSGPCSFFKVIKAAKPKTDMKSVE

T2: endogenous AIM2 of NR9456 macrophages (mouse (endogenous in NR9456)) (UniProt Q91VJ1)
T2 sequence: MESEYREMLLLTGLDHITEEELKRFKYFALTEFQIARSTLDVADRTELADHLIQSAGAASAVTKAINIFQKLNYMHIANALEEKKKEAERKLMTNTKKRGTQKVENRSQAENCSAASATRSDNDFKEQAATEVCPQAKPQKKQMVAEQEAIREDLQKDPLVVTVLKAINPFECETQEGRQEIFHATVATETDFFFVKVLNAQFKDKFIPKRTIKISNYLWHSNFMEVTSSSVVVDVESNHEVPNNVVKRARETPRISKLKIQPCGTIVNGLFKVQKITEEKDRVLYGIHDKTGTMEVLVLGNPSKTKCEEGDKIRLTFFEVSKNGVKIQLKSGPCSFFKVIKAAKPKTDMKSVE

B1: myc-tagged IFI205 (IFI205myc), transiently expressed in HEK293T cells (protein, UniProt Q8CGE8 1-404)
chain: MENEYKRLVLLEGLECINKHQFNLFKSLMVKDLNLEEDNQEKYTTFQIANMMVKKFPADAGLDRLINFCERVPTLKKRAEILKKERSEVTEETSLEINRQEASPATPTSTTSHMLASERGKTSTTQEETSTAQKRKGMSEEKTDVKKIKASGKADQPPCCEGPTATCQSPISQVSSSASSNIPSAKNQKSQPQNQNIPRGAVLHSEPLTVMVLTATDPFEYESPEHEVKNMFHATVATVSQYFHVKVFNIDLKEKFTKNNFITISNYFESKGILEINETSSVLEAAPKQMIEVPNCITRNANASPKICDIQKGTSGTVFYGVFTLHKKKVKTQNTSYEIKDGSGSIEVVGSGQWHNINCKEGDKLHLFCFHLKRERGQPKLVCGDHSFVKVTKAGKKKEASTVQ
B2: myc-tagged IFI205 (IFI205myc), stably expressed in NR9456 macrophages (protein, UniProt Q8CGE8 1-404)
chain: MENEYKRLVLLEGLECINKHQFNLFKSLMVKDLNLEEDNQEKYTTFQIANMMVKKFPADAGLDRLINFCERVPTLKKRAEILKKERSEVTEETSLEINRQEASPATPTSTTSHMLASERGKTSTTQEETSTAQKRKGMSEEKTDVKKIKASGKADQPPCCEGPTATCQSPISQVSSSASSNIPSAKNQKSQPQNQNIPRGAVLHSEPLTVMVLTATDPFEYESPEHEVKNMFHATVATVSQYFHVKVFNIDLKEKFTKNNFITISNYFESKGILEINETSSVLEAAPKQMIEVPNCITRNANASPKICDIQKGTSGTVFYGVFTLHKKKVKTQNTSYEIKDGSGSIEVVGSGQWHNINCKEGDKLHLFCFHLKRERGQPKLVCGDHSFVKVTKAGKKKEASTVQ

Key:
[1] = target: T1, HA-tagged AIM2 (AIM2HA), transiently expressed in HEK293T cells; assay: co-IP; HEK293T cells cotransfected with two of the tagged proteins, lysed 48 h after transfection in RIPA buffer (50 mM Tris pH 7.4, 150 mM NaCl, 1 mM EDTA, 1% Triton X-100, 1% deoxycholate, 0.1% SDS); IP with anti-HA or anti-FLAG agarose beads at 4°C overnight; Western blot
[2] = target: T1, HA-tagged AIM2 (AIM2HA), transiently expressed in HEK293T cells; assay: co-IP; as a1, but IFI205myc, AIM2HA and STING-FLAG all three coexpressed in HEK293T cells; IP with anti-HA or anti-FLAG agarose beads; Western blot
[3] = target: T2, endogenous AIM2 of NR9456 macrophages (mouse (endogenous in NR9456)); assay: proximity ligation; Duolink in situ PLA in NR9456-IFI205myc or NR9456 cells, fixed with 4% paraformaldehyde and permeabilised with 0.5% Triton X-100; anti-myc, anti-AIM2 and anti-STING primary antibodies; also after siRNA knockdown of Trex1, Aim2 or Ifi205

Binder	binding [1]	binding [2]	binding [3]
B1	binds	binds	
B2			binds
